PubChem BioAssay AID1259425 | University of Nebraska Medical Center | 2018
Shown is an unselected part of about 14,000 reagents. The numbers tell different reagents against one gene apart. No sequences are given here. Not stated in the record: the time to read-out.

Screen: 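Compare each knockdown with KSR1 silencing using changes in marker transcripts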 (primary screen)
Cells: HCT116 human colon cancer cells
Reagents: siRNA pool against human genes, 50 nM siRNA
Read-out: 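mRNA of six signature genes measured together by branched-DNA assay after 50 nM siRNA pool, blank removed, divided by geometric mean of two housekeeping genes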
Scale: BNIP3L mRNA: higher = more BNIP3L transcript after knockdown; NDRG1 mRNA: higher = more NDRG1 transcript after knockdown; BNIP3 mRNA: higher = more BNIP3 transcript after knockdown; ALDOC mRNA: higher = more ALDOC transcript after knockdown; ACSL5 mRNA: higher = more ACSL5 transcript after knockdown

gene | pool no. | BNIP3L mRNA, set 1 | NDRG1 mRNA, set 1 | BNIP3 mRNA, set 1 | ALDOC mRNA, set 1 | ACSL5 mRNA, set 1
GIMAP4 | 1 | 0.143 | 0.127 | 0.356 | 0.0234 | 0.192
FUT5 | 1 | 0.0794 | 0.146 | 0.26 | 0.0143 | 0.165
IPCEF1 | 1 | 0.103 | 0.181 | 0.527 | 0.0171 | 0.138
CAV3 | 1 | 0.102 | 0.122 | 0.239 | 0.0108 | 0.222
PCDH10 | 1 | 0.11 | 0.173 | 0.335 | 0.0445 | 0.149
CDKL3 | 1 | 0.104 | 0.0613 | 0.256 | 0.0108 | 0.135
PCDHGA8 | 1 | 0.0932 | 0.525 | 0.263 | 0.00158 | 0.331
CAPRIN1 | 1 | 0.0364 | 0.277 | 0.309 | 0.0213 | 0.147
ATXN7 | 1 | 0.0681 | 0.0888 | 0.409 | 0.0202 | 0.0922
WRN | 1 | 0.154 | 0.192 | 0.466 | 0.0729 | 0.393
TGFBR1 | 1 | 0.161 | 0.106 | 0.325 | 0.0148 | 0.169
BTF3P11 | 1 | 0.042 | 0.137 | 0.148 | 0.00725 | 0.155
BAAT | 1 | 0.0929 | 0.0741 | 0.381 | 0.0278 | 0.25
BTBD2 | 1 | 0.0385 | 0.245 | 0.257 | 0.0213 | 0.103
MFF | 1 | 0.113 | 0.304 | 0.296 | 0.0631 | 0.209
PDCD1LG2 | 1 | 0.0927 | 0.242 | 0.554 | 0.022 | 0.12
TCEA2 | 1 | 0.23 | 0.474 | 0.375 | 0.00698 | 0.185
EIF1 | 1 | 0.0251 | 0.248 | 0.211 | 0.0352 | 0.193
SLC17A9 | 1 | 0.065 | 0.252 | 0.316 | 0.0208 | 0.318
SLC39A4 | 1 | 0.0691 | 0.213 | 0.481 | 0.0141 | 0.31
HARS1 | 1 | 0.089 | 0.146 | 0.222 | 0.0151 | 0.0815
NEUROD4 | 1 | 0.105 | 0.151 | 0.266 | 0.0103 | 0.148
WNT11 | 1 | 0.0889 | 0.107 | 0.323 | 0.019 | 0.174
VAV2 | 1 | 0.0657 | 0.357 | 0.279 | 0.0181 | 0.123
NMUR1 | 1 | 0.171 | 0.225 | 0.261 | 0.0454 | 0.258
DNAJA2 | 1 | 0.0712 | 0.111 | 0.314 | 0.0198 | 0.0622
RNF122 | 1 | 0.0668 | 0.184 | 0.25 | 0.0351 | 0.227
FOXM1 | 1 | 0.0882 | 0.0865 | 0.305 | 0.00714 | 0.227
MAEA | 1 | 0.0696 | 0.122 | 0.279 | 0.0168 | 0.161
ZNF335 | 1 | 0.142 | 0.186 | 0.405 | 0.072 | 0.161
ZNF500 | 1 | 0.17 | 0.269 | 0.449 | 0.0193 | 0.174
C4A | 1 | 0.116 | 0.439 | 0.296 | 0.0193 | 0.192
DCTPP1 | 1 | 0.118 | 0.309 | 0.262 | 0.0322 | 0.158
KLHL1 | 1 | 0.145 | 0.126 | 0.281 | 0.0167 | 0.127
PLA2G7 | 1 | 0.0855 | 0.0649 | 0.286 | 0.0286 | 0.0749
C3 | 1 | 0.0686 | 0.341 | 0.307 | 0.0418 | 0.154
AVL9 | 1 | 0.0891 | 0.188 | 0.254 | 0.0248 | 0.214
TUT4 | 1 | 0.137 | 0.229 | 0.295 | 0.0226 | 0.105
ST14 | 1 | 0.135 | 0.168 | 0.188 | 0.0196 | 0.218
ABCB1 | 1 | 0.17 | 0.231 | 0.358 | 0.0411 | 0.272
SEC16A | 1 | 0.145 | 0.281 | 0.225 | 0.027 | 0.263
SCAF8 | 1 | 0.22 | 0.206 | 0.333 | 0.039 | 0.113
NXPH1 | 1 | 0.076 | 0.385 | 0.273 | 0.0312 | 0.146
LIG4 | 1 | 0.0478 | 0.127 | 0.216 | 0.0205 | 0.137
U2SURP | 1 | 0.204 | 0.833 | 0.267 | 0.0245 | 0.287
ARHGAP17 | 1 | 0.0788 | 0.255 | 0.217 | 0.0213 | 0.235
PDHX | 1 | 0.173 | 0.271 | 0.201 | 0.0436 | 0.181
CPO | 1 | 0.153 | 0.0906 | 0.301 | 0.0225 | 0.181
GYPC | 1 | 0.164 | 0.682 | 0.411 | 0.0918 | 0.343
HAAO | 1 | 0.113 | 0.454 | 0.345 | 0.0403 | 0.311
MTIF2 | 1 | 0.129 | 0.14 | 0.47 | 0.0401 | 0.127
SMAD3 | 1 | 0.151 | 0.156 | 0.335 | 0.00842 | 0.321
SMAD3 | 2 | 0.0362 | 0.0904 | 0.372 | 0.0189 | 0.11
GP6 | 1 | 0.116 | 0.103 | 0.269 | 0.0475 | 0.203
FAM30A | 1 | 0.0301 | 0.255 | 0.275 | 0.0531 | 0.341
DMAP1 | 1 | 0.0938 | 1.34 | 0.341 | 0.0428 | 0.936
TMEM185A | 1 | 0.0876 | 0.123 | 0.169 | 0.0185 | 0.379
SETD2 | 1 | 0.124 | 0.0648 | 0.317 | 0.0128 | 0.0652
PDE8B | 1 | 0.119 | 0.201 | 0.266 | 0.0353 | 0.117
SSTR2 | 1 | 0.0616 | 0.699 | 0.3 | 0.0662 | 0.192
MGARP | 1 | 0.0854 | 0.213 | 0.229 | 0.0425 | 0.112
NEO1 | 1 | 0.17 | 0.186 | 0.433 | 0.017 | 0.426
ZSWIM5 | 1 | 0.0877 | 0.0886 | 0.257 | 0.0115 | 0.107

Taken from above.
Value for MFF under “BNIP3L mRNA, set 1”: 0.113
Under “ALDOC mRNA, set 1”, GYPC has 0.0918
IPCEF1, BNIP3L mRNA, set 1: 0.103
Under “NDRG1 mRNA, set 1”, CPO is entered as 0.0906
Under “NDRG1 mRNA, set 1”, SEC16A has 0.281
For “ACSL5 mRNA, set 1”, C4A is entered as 0.192
